The other results are listed elsewhere or left out.
Compound: C[C@@H](Oc1cc(-c2cnn(C3CCNCC3)c2)cnc1N)c1c(Cl)ccc(F)c1Cl [crizotinib]
Assay: log2 fold change, soluble protein after heating vs DMSO (PISA); higher = thermal stabilisation; K562 cells, 10 uM, 30 min; active = over 0.2 and 3.5 SD of the protein, either way, in both replicates (recomputed)
Method in brief: (§1)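 K562 cells at 2×10^6 cells/mL were treated with 10 μM compound for 30 min. Aliquots were heated for 3 min across 48°C-58°C, pooled, and extracted in PBS with 0.5% NP-40 at 4°C; soluble protein was the supernatant after 21,000xg for 90 min. Soluble protein was quantified by TMTpro 16plex LC-MS/MS with channel sums equalised, and reported as log2 fold change in thermal stability against DMSO controls, with values from duplicates.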

Protein sequences, listed by entry. Tags and fused reporters are not part of them. Lines headed by an entry give the natural chain unless they say otherwise; changes in a name come on top.
UniProt Q99988: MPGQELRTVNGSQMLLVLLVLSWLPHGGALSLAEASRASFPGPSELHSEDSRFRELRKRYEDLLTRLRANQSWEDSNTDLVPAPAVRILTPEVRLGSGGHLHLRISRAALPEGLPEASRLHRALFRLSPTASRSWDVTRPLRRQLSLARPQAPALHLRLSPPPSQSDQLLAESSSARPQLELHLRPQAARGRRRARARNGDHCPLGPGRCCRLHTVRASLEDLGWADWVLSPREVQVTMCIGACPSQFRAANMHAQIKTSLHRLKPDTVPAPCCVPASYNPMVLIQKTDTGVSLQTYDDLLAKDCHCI
UniProt Q8WTR4: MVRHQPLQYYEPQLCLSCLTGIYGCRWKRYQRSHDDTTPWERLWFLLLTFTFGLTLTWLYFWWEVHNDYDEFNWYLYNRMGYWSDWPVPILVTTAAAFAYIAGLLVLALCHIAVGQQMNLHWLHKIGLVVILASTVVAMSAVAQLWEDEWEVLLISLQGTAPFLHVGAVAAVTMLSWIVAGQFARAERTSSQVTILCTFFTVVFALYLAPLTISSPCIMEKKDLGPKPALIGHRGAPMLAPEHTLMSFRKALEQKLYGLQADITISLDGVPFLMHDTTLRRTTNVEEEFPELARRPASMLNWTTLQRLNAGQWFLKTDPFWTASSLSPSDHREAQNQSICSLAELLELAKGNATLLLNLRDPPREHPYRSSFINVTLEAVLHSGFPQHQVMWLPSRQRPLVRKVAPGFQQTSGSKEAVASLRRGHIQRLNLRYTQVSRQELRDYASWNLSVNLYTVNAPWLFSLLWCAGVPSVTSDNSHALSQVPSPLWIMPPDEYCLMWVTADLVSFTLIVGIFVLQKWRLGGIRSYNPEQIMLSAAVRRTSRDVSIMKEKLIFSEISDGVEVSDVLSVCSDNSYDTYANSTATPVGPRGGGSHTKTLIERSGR
UniProt Q6P4F1: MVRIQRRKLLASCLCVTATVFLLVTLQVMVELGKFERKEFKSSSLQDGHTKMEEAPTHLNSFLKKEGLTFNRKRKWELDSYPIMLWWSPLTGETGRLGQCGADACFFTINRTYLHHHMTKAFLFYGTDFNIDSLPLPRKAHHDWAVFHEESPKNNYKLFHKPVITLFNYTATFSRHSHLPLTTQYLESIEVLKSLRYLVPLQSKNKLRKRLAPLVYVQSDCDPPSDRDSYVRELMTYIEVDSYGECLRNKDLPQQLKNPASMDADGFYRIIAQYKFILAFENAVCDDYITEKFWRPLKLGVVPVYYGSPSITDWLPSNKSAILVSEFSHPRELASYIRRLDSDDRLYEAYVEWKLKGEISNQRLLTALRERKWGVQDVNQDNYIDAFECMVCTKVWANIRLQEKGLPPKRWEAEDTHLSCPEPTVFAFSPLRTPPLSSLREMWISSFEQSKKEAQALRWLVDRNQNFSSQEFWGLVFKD
UniProt O94915: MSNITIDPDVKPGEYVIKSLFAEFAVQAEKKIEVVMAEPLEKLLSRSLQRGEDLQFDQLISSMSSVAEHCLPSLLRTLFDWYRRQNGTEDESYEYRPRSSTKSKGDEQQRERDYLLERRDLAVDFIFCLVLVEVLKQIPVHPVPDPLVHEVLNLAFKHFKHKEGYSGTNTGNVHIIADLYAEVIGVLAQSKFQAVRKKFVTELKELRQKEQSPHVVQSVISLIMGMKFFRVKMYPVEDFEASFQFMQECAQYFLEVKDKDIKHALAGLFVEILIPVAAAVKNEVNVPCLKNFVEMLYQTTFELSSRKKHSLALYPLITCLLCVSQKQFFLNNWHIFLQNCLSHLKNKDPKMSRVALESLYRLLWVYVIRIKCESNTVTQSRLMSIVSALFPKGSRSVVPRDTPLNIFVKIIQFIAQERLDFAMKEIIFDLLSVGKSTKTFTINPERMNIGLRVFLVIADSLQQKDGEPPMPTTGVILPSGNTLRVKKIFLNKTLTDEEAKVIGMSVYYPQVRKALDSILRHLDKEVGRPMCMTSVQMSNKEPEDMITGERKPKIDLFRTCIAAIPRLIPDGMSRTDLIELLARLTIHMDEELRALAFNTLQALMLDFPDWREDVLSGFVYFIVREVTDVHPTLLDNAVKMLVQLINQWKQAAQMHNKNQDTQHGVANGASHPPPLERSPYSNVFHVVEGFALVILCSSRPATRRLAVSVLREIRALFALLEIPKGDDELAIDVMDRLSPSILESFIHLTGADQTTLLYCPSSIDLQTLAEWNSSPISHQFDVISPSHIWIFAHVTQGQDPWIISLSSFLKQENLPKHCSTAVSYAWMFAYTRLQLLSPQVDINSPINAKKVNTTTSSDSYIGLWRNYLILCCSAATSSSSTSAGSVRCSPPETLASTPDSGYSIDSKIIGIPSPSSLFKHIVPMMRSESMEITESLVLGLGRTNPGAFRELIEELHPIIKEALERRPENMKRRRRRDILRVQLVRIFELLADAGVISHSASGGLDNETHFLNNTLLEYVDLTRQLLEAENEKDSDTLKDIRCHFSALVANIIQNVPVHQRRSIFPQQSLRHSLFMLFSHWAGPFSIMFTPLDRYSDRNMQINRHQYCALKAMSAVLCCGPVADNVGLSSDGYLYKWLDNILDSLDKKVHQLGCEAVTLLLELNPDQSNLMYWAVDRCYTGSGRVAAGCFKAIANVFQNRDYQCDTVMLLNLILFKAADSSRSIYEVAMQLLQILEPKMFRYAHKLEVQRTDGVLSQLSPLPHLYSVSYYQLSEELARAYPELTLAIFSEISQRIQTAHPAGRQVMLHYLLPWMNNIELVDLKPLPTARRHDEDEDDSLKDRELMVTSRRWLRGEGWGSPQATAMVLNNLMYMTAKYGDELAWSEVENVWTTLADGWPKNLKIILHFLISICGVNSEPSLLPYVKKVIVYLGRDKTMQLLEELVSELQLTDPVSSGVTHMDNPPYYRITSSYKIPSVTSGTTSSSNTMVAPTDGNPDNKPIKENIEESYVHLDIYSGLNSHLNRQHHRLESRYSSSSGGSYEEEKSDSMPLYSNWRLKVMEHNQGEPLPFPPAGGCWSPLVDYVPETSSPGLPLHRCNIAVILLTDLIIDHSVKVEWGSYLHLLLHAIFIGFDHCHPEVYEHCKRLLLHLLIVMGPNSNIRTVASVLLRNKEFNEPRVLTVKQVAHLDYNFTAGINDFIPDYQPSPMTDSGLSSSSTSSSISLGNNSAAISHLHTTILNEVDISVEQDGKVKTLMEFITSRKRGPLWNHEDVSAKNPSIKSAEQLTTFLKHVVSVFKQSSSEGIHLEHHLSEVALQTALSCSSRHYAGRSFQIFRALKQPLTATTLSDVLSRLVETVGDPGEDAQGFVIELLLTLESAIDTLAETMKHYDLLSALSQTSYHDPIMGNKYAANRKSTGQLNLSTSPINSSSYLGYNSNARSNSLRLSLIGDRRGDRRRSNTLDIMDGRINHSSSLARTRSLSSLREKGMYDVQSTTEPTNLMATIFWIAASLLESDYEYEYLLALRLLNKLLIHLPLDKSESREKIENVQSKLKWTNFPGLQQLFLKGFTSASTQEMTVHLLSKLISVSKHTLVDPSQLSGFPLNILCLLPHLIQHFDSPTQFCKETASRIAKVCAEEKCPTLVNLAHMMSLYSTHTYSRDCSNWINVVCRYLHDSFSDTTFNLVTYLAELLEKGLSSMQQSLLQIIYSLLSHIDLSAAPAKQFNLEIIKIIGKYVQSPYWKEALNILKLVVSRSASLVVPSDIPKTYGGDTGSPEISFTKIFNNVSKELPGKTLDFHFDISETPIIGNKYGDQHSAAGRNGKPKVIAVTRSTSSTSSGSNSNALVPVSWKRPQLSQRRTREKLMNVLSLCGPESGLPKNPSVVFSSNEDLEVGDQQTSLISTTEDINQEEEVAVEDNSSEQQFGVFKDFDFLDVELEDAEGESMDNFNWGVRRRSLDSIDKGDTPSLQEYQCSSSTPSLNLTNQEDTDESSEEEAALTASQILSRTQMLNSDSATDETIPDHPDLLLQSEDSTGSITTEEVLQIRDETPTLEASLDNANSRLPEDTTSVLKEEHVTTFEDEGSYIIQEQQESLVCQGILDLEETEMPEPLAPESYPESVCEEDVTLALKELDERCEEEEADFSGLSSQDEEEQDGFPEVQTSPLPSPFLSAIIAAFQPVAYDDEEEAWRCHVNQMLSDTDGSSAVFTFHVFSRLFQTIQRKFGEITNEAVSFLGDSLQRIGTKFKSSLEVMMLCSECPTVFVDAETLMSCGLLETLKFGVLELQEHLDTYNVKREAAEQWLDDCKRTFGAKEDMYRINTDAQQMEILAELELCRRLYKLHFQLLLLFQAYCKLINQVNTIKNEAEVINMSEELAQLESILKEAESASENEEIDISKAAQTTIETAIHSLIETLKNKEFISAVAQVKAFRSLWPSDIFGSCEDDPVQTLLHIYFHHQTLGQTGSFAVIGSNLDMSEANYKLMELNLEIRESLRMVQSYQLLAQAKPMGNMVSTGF
UniProt Q9H840: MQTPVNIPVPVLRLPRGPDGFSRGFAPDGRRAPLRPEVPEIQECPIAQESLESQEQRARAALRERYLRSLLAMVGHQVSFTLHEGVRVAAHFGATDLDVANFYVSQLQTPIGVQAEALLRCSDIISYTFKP
UniProt Q5JV73, whole entry, looked up: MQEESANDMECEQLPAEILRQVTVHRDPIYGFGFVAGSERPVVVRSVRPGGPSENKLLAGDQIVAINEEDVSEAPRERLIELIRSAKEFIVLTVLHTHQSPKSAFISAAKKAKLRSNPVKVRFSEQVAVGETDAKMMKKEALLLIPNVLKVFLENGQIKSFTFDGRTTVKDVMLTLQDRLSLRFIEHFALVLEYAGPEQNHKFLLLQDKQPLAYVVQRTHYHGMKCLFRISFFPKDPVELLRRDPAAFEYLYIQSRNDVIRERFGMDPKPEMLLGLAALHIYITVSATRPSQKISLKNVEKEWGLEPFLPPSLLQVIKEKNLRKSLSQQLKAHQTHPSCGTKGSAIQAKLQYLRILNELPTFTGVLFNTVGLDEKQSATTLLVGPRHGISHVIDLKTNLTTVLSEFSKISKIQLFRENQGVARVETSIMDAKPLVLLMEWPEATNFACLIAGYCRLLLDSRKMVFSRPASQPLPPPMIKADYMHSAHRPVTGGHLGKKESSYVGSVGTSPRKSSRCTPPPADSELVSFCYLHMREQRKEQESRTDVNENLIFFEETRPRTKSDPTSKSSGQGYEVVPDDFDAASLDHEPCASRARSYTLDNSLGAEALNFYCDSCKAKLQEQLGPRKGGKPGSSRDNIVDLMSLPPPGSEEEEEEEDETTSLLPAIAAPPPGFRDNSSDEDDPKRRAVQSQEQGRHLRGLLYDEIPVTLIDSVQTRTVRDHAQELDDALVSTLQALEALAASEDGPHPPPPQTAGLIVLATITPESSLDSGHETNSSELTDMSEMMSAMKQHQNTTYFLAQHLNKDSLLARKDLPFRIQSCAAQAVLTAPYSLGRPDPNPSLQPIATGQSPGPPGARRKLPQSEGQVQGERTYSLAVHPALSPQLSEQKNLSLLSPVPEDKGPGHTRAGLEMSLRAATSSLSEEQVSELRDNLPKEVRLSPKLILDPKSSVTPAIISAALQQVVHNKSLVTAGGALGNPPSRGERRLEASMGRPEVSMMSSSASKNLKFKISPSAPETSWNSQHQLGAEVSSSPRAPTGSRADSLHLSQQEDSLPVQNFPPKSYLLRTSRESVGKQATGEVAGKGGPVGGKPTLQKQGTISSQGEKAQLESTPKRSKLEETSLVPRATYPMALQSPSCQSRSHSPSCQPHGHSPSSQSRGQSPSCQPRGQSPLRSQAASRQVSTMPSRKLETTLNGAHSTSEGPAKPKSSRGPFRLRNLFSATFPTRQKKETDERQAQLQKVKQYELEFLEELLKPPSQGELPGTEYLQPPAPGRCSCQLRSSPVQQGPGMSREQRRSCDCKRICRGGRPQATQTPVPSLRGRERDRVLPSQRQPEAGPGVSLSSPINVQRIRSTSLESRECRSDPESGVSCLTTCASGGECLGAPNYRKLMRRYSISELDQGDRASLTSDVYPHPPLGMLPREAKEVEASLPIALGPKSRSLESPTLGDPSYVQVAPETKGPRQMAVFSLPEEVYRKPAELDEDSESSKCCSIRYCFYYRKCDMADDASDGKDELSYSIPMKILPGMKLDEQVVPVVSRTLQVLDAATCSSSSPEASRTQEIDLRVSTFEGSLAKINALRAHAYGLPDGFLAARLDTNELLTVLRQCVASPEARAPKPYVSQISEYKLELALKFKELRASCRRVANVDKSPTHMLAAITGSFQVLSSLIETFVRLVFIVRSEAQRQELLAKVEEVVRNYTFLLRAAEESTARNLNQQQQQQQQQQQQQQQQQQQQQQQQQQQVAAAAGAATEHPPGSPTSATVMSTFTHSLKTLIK
UniProt P01275: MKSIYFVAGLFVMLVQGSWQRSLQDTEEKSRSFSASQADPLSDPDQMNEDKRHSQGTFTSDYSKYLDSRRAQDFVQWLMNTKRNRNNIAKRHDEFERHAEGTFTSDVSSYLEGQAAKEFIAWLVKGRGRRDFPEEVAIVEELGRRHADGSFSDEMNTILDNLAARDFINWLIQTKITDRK

log2 fold change, inactive:
GAL (UniProt P22466) -0.012
GDF15 (UniProt Q99988) 0.04
GDI2 (UniProt Q5SX86) 0.045
GFOD1 (UniProt Q9NXC2) -0.012
FZR1 (UniProt Q9UM11) -0.105
FUT4 (UniProt P22083) 0.026
G6PD (UniProt E7EUI8) -0.046
GCC1 (UniProt Q96CN9) -0.347
GDPD5 (UniProt Q8WTR4) 0.277

Compound: C[C@@H]1COCCN1C2=NC(=NC(=C2)C3(CC3)S(=O)(=O)C)C4=C5C=CNC5=CC=C4
Assay: as above
Method in brief: as §1

log2 fold change, inactive:
GEMIN8 (UniProt Q9NWZ8) -0.029
GDPD3 (UniProt Q7L5L3) 0.12
GDI2 (UniProt Q5SX86) 0.111
FRMD8 (UniProt Q9BZ67) -0.11
GFOD1 (UniProt Q9NXC2) 0.03
FUT10 isoform 2 (UniProt Q6P4F1) 0.24
FRYL isoform 2 (UniProt O94915) 0.147
GEMIN7 (UniProt Q9H840) 0.158
FYTTD1 (UniProt Q96QD9) 0.046
GFOD2 (UniProt Q3B7J2) 0.003
GCC1 (UniProt Q96CN9) 0.067
GDPD5 (UniProt Q8WTR4) 0.02
FRMPD3 (UniProt Q5JV73) -0.166

Compound: C[C@H](C1=CC=C(C=C1)C(=O)NC2=C3C=CNC3=NC=C2)N
Assay: as above
Method in brief: as §1

log2 fold change, inactive:
GEMIN8 (UniProt Q9NWZ8) 0.262
FOXJ2 (UniProt Q9P0K8) -0.072
GCG (UniProt P01275) 0.278
GDF15 (UniProt Q99988) 0.103
FRMD8 (UniProt Q9BZ67) -0.14
FRYL isoform 2 (UniProt O94915) 0.064
GDPGP1 (UniProt Q6ZNW5) 0.191
FYTTD1 (UniProt Q96QD9) 0.355
GABPB1 isoform 3 (UniProt Q06547) -0.339
FRMPD3 (UniProt Q5JV73) 0.55
